In publication PMC3317874, “Palmitoylation and membrane cholesterol stabilize μ-opioid receptor homodimerization and G protein coupling” (BMC Cell Biology, 2012):
No constants are given. Whether binding was seen depends on the method and setting. In cells and extracts the contact can be indirect. Some binding calls cover weakened binding; strength is not graded here. Sequences can lack the tags named with a protein.

Biological target: T1, FLAG-tagged wild-type μ-opioid receptor (OPRM1) (rat), P33535
T1 chain: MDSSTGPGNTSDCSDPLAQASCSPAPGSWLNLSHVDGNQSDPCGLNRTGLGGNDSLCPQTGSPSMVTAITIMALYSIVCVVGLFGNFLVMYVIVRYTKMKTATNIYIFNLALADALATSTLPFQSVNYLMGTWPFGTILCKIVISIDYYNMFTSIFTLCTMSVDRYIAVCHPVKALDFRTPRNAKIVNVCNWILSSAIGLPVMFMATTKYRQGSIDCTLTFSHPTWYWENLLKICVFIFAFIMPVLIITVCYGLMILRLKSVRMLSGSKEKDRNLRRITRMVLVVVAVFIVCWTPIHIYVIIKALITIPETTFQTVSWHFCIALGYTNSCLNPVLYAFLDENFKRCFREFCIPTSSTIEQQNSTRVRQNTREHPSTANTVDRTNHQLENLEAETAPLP
Assay: co-IP; FLAGOPRM1/FLAGC170A and HAOPRM1/HAC170A transfected into HEK cells; HA-tagged receptor precipitated with FLAG-tagged receptor, quantified by immunoblotting
Conditions: remark: other sources report otherwise

binding: binds
B1: HA-tagged wild-type μ-opioid receptor (OPRM1), P33535 1-398 (receptor)
chain: MDSSTGPGNTSDCSDPLAQASCSPAPGSWLNLSHVDGNQSDPCGLNRTGLGGNDSLCPQTGSPSMVTAITIMALYSIVCVVGLFGNFLVMYVIVRYTKMKTATNIYIFNLALADALATSTLPFQSVNYLMGTWPFGTILCKIVISIDYYNMFTSIFTLCTMSVDRYIAVCHPVKALDFRTPRNAKIVNVCNWILSSAIGLPVMFMATTKYRQGSIDCTLTFSHPTWYWENLLKICVFIFAFIMPVLIITVCYGLMILRLKSVRMLSGSKEKDRNLRRITRMVLVVVAVFIVCWTPIHIYVIIKALITIPETTFQTVSWHFCIALGYTNSCLNPVLYAFLDENFKRCFREFCIPTSSTIEQQNSTRVRQNTREHPSTANTVDRTNHQLENLEAETAPLP
modifications: here or on the partner: palmitoylated at C3.55(170); palmitoylated at C3.55(170)
